Source: paper PMC7738853
These are yes or no findings as the source states them, for the method shown. In cells and extracts the contact can be indirect. Some entries that bind do so weakly or less than the wild type. For part of these data: Tags and fused reporters may be left off the sequences shown.

Protein sequences, listed by entry. Tags and fused reporters are not part of them.
UniProt Q9Y3Z3: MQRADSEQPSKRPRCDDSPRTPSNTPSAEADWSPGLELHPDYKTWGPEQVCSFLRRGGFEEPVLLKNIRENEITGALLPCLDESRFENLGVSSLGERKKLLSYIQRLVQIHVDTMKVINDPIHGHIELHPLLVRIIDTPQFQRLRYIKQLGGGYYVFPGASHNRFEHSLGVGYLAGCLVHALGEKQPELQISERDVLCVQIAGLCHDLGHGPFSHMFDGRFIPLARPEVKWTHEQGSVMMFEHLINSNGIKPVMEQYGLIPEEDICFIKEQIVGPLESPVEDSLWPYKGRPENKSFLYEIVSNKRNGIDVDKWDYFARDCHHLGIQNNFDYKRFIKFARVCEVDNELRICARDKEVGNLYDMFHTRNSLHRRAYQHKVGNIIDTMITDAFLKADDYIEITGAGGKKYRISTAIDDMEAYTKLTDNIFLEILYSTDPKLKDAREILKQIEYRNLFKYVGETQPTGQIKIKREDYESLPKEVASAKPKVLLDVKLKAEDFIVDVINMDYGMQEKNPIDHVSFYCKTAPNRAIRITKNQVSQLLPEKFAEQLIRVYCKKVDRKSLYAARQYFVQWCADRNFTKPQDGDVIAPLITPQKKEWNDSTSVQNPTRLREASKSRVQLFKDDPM

Experiments:
HA-OGT (HEK293T) (human) = biological target: T1, HA-OGT (HEK293T) (human) (UniProt O15294); assay: co-IP; HEK293T cells co-transfected with the Flag- and HA-tagged constructs; immunoprecipitation with anti-HA antibody, immunoblot
T1 sequence: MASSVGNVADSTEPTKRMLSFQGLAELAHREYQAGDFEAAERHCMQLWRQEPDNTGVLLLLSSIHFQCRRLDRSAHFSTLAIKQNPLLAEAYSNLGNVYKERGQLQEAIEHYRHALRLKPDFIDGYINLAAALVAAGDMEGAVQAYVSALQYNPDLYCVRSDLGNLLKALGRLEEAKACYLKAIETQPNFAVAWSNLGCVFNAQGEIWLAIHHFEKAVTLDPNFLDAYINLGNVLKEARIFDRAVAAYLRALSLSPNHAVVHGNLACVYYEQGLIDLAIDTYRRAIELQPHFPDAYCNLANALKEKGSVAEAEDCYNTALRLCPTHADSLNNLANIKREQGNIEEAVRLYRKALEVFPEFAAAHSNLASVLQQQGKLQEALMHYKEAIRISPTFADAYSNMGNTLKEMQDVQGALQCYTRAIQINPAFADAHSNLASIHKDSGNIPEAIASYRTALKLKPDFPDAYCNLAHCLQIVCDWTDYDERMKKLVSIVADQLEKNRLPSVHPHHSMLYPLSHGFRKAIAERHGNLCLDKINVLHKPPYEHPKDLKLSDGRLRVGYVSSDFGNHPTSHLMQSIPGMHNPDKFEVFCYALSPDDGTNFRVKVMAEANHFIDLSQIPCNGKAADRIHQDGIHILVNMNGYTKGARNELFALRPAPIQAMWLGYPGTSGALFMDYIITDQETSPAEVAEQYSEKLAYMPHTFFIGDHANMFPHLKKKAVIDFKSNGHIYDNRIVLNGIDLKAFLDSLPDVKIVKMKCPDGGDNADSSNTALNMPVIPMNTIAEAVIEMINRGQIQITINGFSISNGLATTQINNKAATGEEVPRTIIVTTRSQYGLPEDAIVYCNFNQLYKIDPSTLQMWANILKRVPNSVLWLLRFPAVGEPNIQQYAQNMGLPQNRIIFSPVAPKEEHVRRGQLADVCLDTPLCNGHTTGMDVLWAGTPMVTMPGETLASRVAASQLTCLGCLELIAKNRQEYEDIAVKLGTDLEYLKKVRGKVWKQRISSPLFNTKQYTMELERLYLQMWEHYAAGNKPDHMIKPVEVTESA

[1] = biological target: sterile alpha motif and histidine/aspartic acid domain-containing protein 1 (SAMHD1), endogenous in HepG2 cells (human (endogenous in HepG2)) (UniProt Q9Y3Z3); assay: co-IP; endogenous proteins; HepG2 cell extracts immunoprecipitated with anti-SAMHD1 antibody, immunoblot
[2] = biological target: HA-SAMHD1 (HEK293T) (human) (UniProt Q9Y3Z3); assay: co-IP; HEK293T cells co-transfected with the Flag- and HA-tagged constructs; immunoprecipitation with anti-HA antibody, immunoblot

Q: For “Flag-SAMHD1 (HEK293T) (from UniProt Q9Y3Z3 1-626)”, which binding (HA-OGT (HEK293T) (human)) is on record?
A: binds

B1: O-GlcNAc transferase (OGT), endogenous in HepG2 cells (enzyme, UniProt O15294 1-1046)
chain: T1 sequence
Q: B1 was tested. Which binding [1] did it give?
A: binds

B2: Flag-OGT (HEK293T) (enzyme, UniProt O15294 1-1046)
chain: T1 sequence
Q: How did the binding [2] turn out when B2 was run?
A: binds
